The text below walks through data of publication doi:10.1101/525527.

Chains of the proteins cited; added tags and fusions are not shown.
UniProt P35637: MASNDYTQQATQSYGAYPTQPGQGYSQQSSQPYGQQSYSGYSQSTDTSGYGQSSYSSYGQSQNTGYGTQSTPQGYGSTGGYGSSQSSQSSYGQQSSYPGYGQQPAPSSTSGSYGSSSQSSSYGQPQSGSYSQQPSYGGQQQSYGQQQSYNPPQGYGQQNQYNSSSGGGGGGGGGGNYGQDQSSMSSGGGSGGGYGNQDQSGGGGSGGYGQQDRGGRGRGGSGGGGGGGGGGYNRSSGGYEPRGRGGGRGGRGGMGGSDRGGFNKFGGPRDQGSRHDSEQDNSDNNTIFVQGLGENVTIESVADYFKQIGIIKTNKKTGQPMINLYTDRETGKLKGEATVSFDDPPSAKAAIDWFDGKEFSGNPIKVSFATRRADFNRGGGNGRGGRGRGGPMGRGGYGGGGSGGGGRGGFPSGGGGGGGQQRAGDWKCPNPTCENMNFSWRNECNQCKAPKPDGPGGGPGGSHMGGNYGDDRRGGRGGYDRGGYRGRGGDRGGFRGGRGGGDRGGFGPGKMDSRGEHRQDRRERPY

No constants are given. Whether binding was seen depends on the method and setting. In cells and extracts the contact can be indirect. Some binding calls cover weakened binding; strength is not graded here.

For experiment [1], the target named is AGO2 fused with C-terminal Flag- and HA-epitope tags (e-AGO2) (UniProt Q9UKV8). In words: co-IP.
The target of experiment [2] is AGO1 fused with C-terminal Flag- and HA-epitope tags (e-AGO1) (human) (UniProt Q9UL18). In words: co-IP.

Consider HNRNPK (from UniProt P61978 1-463), for which the figures for the binding entry in experiment [1] and in experiment [2] were “no binding” and “binds”, respectively.

In the case of FUS (from UniProt P35637 1-526), the binding result in experiment [2] is “binds”.
